From the supplement of paper PMC8166895
Where a name gives a salt, the structure may show the parent alone. This is one part of the list. Most values lie at the level of the controls, where differences are scatter.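 Melting temperature was read by differential scanning fluorimetry in a single-replicate pilot screen of a library of approved drugs and clinical or known-target compounds. Compounds raising the melting point by at least 2 °C were the top stabilizing hits, and negative shifts mean destabilization.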

system: SARS-CoV-2 main protease (Mpro, nsp5); assay: thermal shift ΔTm of Mpro relative to plate average Tm; higher = stronger thermal stabilization of Mpro (binding); details: 10 µM; protein concentration 1 µM

| Structure (SMILES) | thermal shift ΔTm of Mpro [°C] |
| --- | --- |
| Cc1cn([C@H]2C=C[C@@H](CO)O2)c(=O)[nH]c1=O [Stavudine (d4T)] | 0.101 |
| CC(=O)NS(=O)(=O)c1ccc(N)cc1 [Sulfacetamide sodium salt hydrate] | -1.37e-05 |
| CC(=O)NS(=O)(=O)c1ccc(N)cc1 [Sulfacetamide Sodium] | 0.215 |
| C=C1CC[C@@H]2[C@](C)(CO)[C@H](O)CC[C@@]2(C)[C@@H]1C/C=C1/C(=O)OC[C@H]1O [Andrographolide] | -0.0454 |
| Cc1ccc(S(=O)(=O)Cc2nc(-c3ccc(C(=O)NCc4cccnc4)cc3)oc2C)cc1 | -0.043 |
| COc1nccnc1NS(=O)(=O)c1cccc(Cl)c1Cl | -0.045 |
| c1ccc2c(c1)Sc1ccccc1N2CC1CN2CCC1CC2 (centres undefined) [Mequitazine] | 0.217 |
| Cc1cc(Cn2nnc3c(-c4ccco4)nc(N)nc32)ccc1N [Vipadenant] | 0.124 |
| CCn1cc(C(=O)O)c(=O)c2c(N)c(F)c(NC3CCCCC3)cc21 | 0.0354 |
| CC/C(=C(\c1ccc(O)cc1)c1ccc(OCCNC)cc1)c1ccccc1 [Endoxifen HCl] | -0.358 |
| CC/C(=C(\c1ccc(O)cc1)c1ccc(OCCNC)cc1)c1ccccc1 [(E/Z)-Endoxifen] | -0.472 |
| NCCCC[C@@H]1NC(=O)[C@@H](Cc2ccc(O)cc2)NC(=O)[C@H](CC(=O)O)NC(=O)CNC(=O)[C@H](CCCN=C(N)N)NC1=O [Cyclo(RGDyK)] | 0.0913 |
| CNC(=O)c1cc(Oc2ccc(NC(=O)Nc3ccc(Cl)c(C(F)(F)F)c3)cc2)ccn1 [Sorafenib] | 1.08 |
| CNC(=O)c1cc(Oc2ccc(NC(=O)Nc3ccc(Cl)c(C(F)(F)F)c3)cc2)ccn1 [Sorafenib Tosylate] | 0.542 |
| CNC(=O)c1ccccc1Nc1cc(Nc2ccc(N3CCOCC3)cc2OC)ncc1C(F)(F)F | -0.0123 |
| COc1cccc2c1C(=O)c1c(O)c3c(c(O)c1C2=O)C[C@@](O)(C(C)=O)C[C@@H]3O[C@H]1C[C@H](N)[C@H](O)[C@H](C)O1 [Daunorubicin HCl] | 0.0173 |
| CC(C)OC(=O)OCOP(=O)(CO[C@H](C)Cn1cnc2c(N)ncnc21)OCOC(=O)OC(C)C [Tenofovir Disoproxil Fumarate] | 0.202 |
| Cc1c(-c2cnccn2)ssc1=S [Oltipraz] | -0.28 |
| COc1ccc(-n2c(SCCCN3C(=O)c4cccc5cccc(c45)C3=O)nnc2-c2ccncc2)cc1 | -0.425 |
| Cc1cccc(CC(=O)N2CCc3c2ccc(-c2cn(C)c4ncnc(N)c24)c3F)n1 | -0.0256 |
| CCN(CC)CCNC(C(=O)OCCC(C)C)c1ccccc1 (centres undefined) [Camylofin] | 0.12 |
| C[C@@H]1C[C@H]2[C@@H]3CCC4=CC(=O)C=C[C@]4(C)[C@@]3(F)[C@@H](O)C[C@]2(C)[C@@]1(O)C(=O)COP(=O)(O)O [Dexamethasone Sodium Phosphate] | 0.0275 |
| Cc1ccc(F)c(NC(=O)Nc2ccc(-c3cccc4[nH]nc(N)c34)cc2)c1 [Linifanib (ABT-869)] | 0.149 |
| C[C@]12CC[C@@H]3c4ccc(OC(=O)c5ccccc5)cc4CC[C@H]3[C@@H]1CC[C@@H]2O [Estradiol Benzoate] | -0.427 |
| CC(C)(C)[N+]([O-])=Cc1ccc(S(=O)(=O)O)cc1S(=O)(=O)O | -0.0794 |

| Structure (SMILES) | thermal shift ΔTm of Mpro [°C] |
| --- | --- |
| Clc1ccc(C(c2c[nH]c3ccccc23)c2c[nH]c3ccccc23)cc1 | 0.14 |
| CN1CCN(C(c2ccccc2)c2ccccc2)CC1 [Cyclizine hydrochloride] | 0.229 |
| CN1CCN(C(c2ccccc2)c2ccccc2)CC1 [Cyclizine 2HCl] | -0.159 |
| CC(C)OC(=O)C1=CN(C(=O)c2ccc(F)c(F)c2)CC(C)(C)c2c1[nH]c1ccccc21 | -0.218 |
| COC(=O)[C@@H]1CC2=CC(=O)CC[C@]2(C)[C@@]23O[C@@H]2C[C@@]2(C)[C@@H](CC[C@@]24CCC(=O)O4)[C@H]13 [Eplerenone] | 0.0445 |
| CC[C@H](CO)Nc1nc(NCc2ccccc2)c2ncn(C(C)C)c2n1 [Roscovitine (Seliciclib,CYC202)] | -0.0265 |
| OCCN(CCO)c1nc(N2CCCCC2)c2nc(N(CCO)CCO)nc(N3CCCCC3)c2n1 [Dipyridamole] | -0.176 |
| Cc1ccc(NC(=O)c2cccc(C(C)(C)C#N)c2)cc1Nc1ccc2ncn(C)c(=O)c2c1 | -0.147 |
| CC[C@@H](C)Nc1cc(C(=O)N[C@H]2C[C@H]3CC[C@@H](C2)N3c2ccc(C(=O)C3CC3)cn2)c(C)cc1C(N)=O | 0.0916 |
| O=c1[nH]c2ccccc2n1CCCN1CCC(n2c(=O)[nH]c3cc(Cl)ccc32)CC1 [Domperidone] | -0.0983 |
| O=C(O)c1ccccc1C(=O)Nc1ccc(S(=O)(=O)Nc2nccs2)cc1 [Phthalylsulfathiazole] | 0.214 |
| CN(c1nccc(=O)[nH]1)C1CCN(c2nc3ccccc3n2Cc2ccc(F)cc2)CC1 [Mizolastine] | -0.0669 |
| COCCCN1CCC(NC(=O)c2cc(Cl)c(N)c3c2OCC3)CC1 [Prucalopride Succinat] | -0.0384 |
| COCCCN1CCC(NC(=O)c2cc(Cl)c(N)c3c2OCC3)CC1 [Prucalopride] | -0.143 |
| C=C1C(=O)[C@@]23[C@H](O)C[C@@H]4C(C)(C)C(=O)CC[C@@]4(C)[C@@H]2CC[C@@H]1[C@H]3O [Glaucocalyxin A] | -0.00838 |
| Cn1c(-c2ccccc2C(F)(F)F)nnc1C12CCC(c3noc(C4CC(F)(F)C4)n3)(CC1)CC2 | -0.048 |
| COC(=O)C1=C(C#N)NC(C)=C(C(=O)OC(C)C)C1c1cccc([N+](=O)[O-])c1 (centres undefined) [Nilvadipine] | -0.197 |
| C=CC(=O)N1C/C(=C\c2ccc([N+](=O)[O-])cc2)C(=O)/C(=C/c2ccc([N+](=O)[O-])cc2)C1 | 0.794 |
| CNc1nc(Nc2cn(C(C)(C)C#N)nc2C)ncc1C(F)(F)F | -0.194 |
| CCN(CC)c1nc2c(S(=O)(=O)c3ccc(Cl)cc3)nnn2c2cc(OC)c(OC)cc12 [Targocil] | 0.0244 |
| C[C@H](CCC(=O)O)[C@H]1CC[C@H]2[C@@H]3[C@@H](O)C[C@@H]4C[C@H](O)CC[C@]4(C)[C@H]3CC[C@]12C [Ursodiol] | 0.0475 |
| O=C(Nc1ccncc1)c1cc([N+](=O)[O-])ccc1Cl | -0.17 |
| CCCCCCNC(=O)Nc1ccc(S(=O)(=O)Nc2ccc(CCNC[C@H](O)COc3ccc(O)cc3)cc2)cc1 | 0.0889 |
| O=C(CCCN1CCN(c2ccccn2)CC1)c1ccc(F)cc1 [Azaperone] | -0.182 |
| CNc1nc(-c2cccc(NC(=O)c3ccc(C(=O)OC)cc3)c2)c2cc(OC)c(OC)cc2n1 [Lotamilast] | 0.055 |

| Structure (SMILES) | thermal shift ΔTm of Mpro [°C] |
| --- | --- |
| COc1cc([C@@H]2OC[C@@H]3[C@H]2CO[C@H]3c2cc(OC)c(O[C@@H]3O[C@H](CO)[C@@H](O)[C@H](O)[C@H]3O)c(OC)c2)cc(OC)c1O [(-)-Syringaresinol 4-O-β-D-glucopyranosi] | -0.0908 |
| Nc1c2ccccc2nc2ccccc12 [Aminacrine] | -0.0463 |
| Cc1ccc(=O)n(-c2ccccc2)c1 [Pirfenidone] | 0.0832 |
| N#Cc1cc2cc(CN3CCC(Nc4ncnc5sc(CC(F)(F)F)cc45)CC3)ccc2[nH]1 | -0.0714 |
| NC(=O)c1ccc(OCCCN2CC3CCCC3C2)cc1 (centres undefined) | 0.0885 |
| Cc1cc(CN2CCN(c3c(Br)cnc4nc(-c5ccc(N6CCN(C)CC6)cc5)[nH]c34)CC2)no1 | 0.271 |
| O=C(Oc1cc(S(=O)(=O)c2ccccc2)ccc1[N+](=O)[O-])c1ccc(Cl)cc1 | -1.05 |
| CN(C)C(=O)[C@H](O)[C@H](Cc1ccccc1)NC(=O)c1cc2cc(Cl)ccc2[nH]1 | -0.0834 |
| COc1ccc(C2CC(=O)c3c(O)cc(OC4OC(COC5OC(C)C(O)C(O)C5O)C(O)C(O)C4O)cc3O2)cc1OC (centres undefined) [Methyl-Hesperidin] | -0.137 |
| N[C@@H](Cc1cc(I)c(Oc2ccc(O)c(I)c2)c(I)c1)C(=O)O [Liothyronine Sodium] | 0.0476 |
| CC(C)(C)c1cc(C(C)(C)C)c2c(c1)C(O)(C(F)(F)F)C(=O)O2 (racemic) | 0.213 |
| CNC(=O)c1cc(C#N)cc(C)c1NC(=O)c1cc(Br)nn1-c1ncccc1Cl [Cyantraniliprole] | 0.149 |
| Cc1cnc(Nc2ccc(OCCN3CCCC3)cc2)nc1Nc1cccc(S(=O)(=O)NC(C)(C)C)c1 | -0.203 |
| C=CCN(C)CCCCCCOc1ccc(C(=O)c2ccc(Br)cc2)c(F)c1 [Ro 48-8071 fumarate] | -0.0284 |
| CC1=C2C[C@H]3[C@@H](CC(=O)[C@H]4C[C@@H](O)CC[C@@]43C)[C@@H]2CC[C@]12O[C@@H]1C[C@H](C)CN[C@H]1[C@H]2C [Peimisine] | -0.0353 |
| CCCNC(=O)NS(=O)(=O)c1ccc(Cl)cc1 [Chlorpropamide] | -0.0864 |
| COc1ccc(Cl)c(Nc2nc3ccccc3nc2NS(=O)(=O)c2cccc(NC(=O)C(C)(C)N)c2)c1 [Pilaralisib (XL147)] | 1.02 |
| CC(=O)O[C@]1(C(C)=O)CC[C@H]2[C@@H]3C=C(Cl)C4=CC(=O)CC[C@]4(C)[C@H]3CC[C@@]21C [Chlormadinone acetate] | 0.105 |
| C=CCc1ccc2c(c1O)C(=O)c1ccccc1C2=O | 0.127 |
| COc1ccc(-c2nc(N3CCOCC3)c3sc(CN(C)c4ncc(C(=O)NO)cn4)cc3n2)cn1 | -0.295 |
| COc1cc(-c2ncn(/C=C\C(=O)OC(C)C)n2)cc(C(F)(F)F)c1 | 0.112 |
| CCN(CC)c1ccc(/C=N/NC(=O)c2ccc(O)cc2)cc1 | -0.0215 |
| Nc1ccccc1NC(=O)c1cnccn1 | -0.103 |
| CO[C@H]1/C=C/O[C@@]2(C)Oc3c(C)c(O)c4c(O)c(c5c(nc6cc(C)ccn65)c4c3C2=O)NC(=O)/C(C)=C\C=C\[C@H](C)[C@H](O)[C@@H](C)[C@@H](O)[C@@H](C)[C@H](OC(C)=O)[C@@H]1C [Rifaximin] | -0.115 |

An excerpt of these results, with tabs.
Structure (SMILES)	thermal shift ΔTm of Mpro [°C]
COc1cc([C@@H]2OC[C@@H]3[C@H]2CO[C@H]3c2cc(OC)c(O[C@@H]3O[C@H](CO)[C@@H](O)[C@H](O)[C@H]3O)c(OC)c2)cc(OC)c1O [(-)-Syringaresinol 4-O-β-D-glucopyranosi]	-0.0908
Nc1c2ccccc2nc2ccccc12 [Aminacrine]	-0.0463
Cc1ccc(=O)n(-c2ccccc2)c1 [Pirfenidone]	0.0832
N#Cc1cc2cc(CN3CCC(Nc4ncnc5sc(CC(F)(F)F)cc45)CC3)ccc2[nH]1	-0.0714
NC(=O)c1ccc(OCCCN2CC3CCCC3C2)cc1 (centres undefined)	0.0885
Cc1cc(CN2CCN(c3c(Br)cnc4nc(-c5ccc(N6CCN(C)CC6)cc5)[nH]c34)CC2)no1	0.271
O=C(Oc1cc(S(=O)(=O)c2ccccc2)ccc1[N+](=O)[O-])c1ccc(Cl)cc1	-1.05
CN(C)C(=O)[C@H](O)[C@H](Cc1ccccc1)NC(=O)c1cc2cc(Cl)ccc2[nH]1	-0.0834
COc1ccc(C2CC(=O)c3c(O)cc(OC4OC(COC5OC(C)C(O)C(O)C5O)C(O)C(O)C4O)cc3O2)cc1OC (centres undefined) [Methyl-Hesperidin]	-0.137
N[C@@H](Cc1cc(I)c(Oc2ccc(O)c(I)c2)c(I)c1)C(=O)O [Liothyronine Sodium]	0.0476
CC(C)(C)c1cc(C(C)(C)C)c2c(c1)C(O)(C(F)(F)F)C(=O)O2 (racemic)	0.213
CNC(=O)c1cc(C#N)cc(C)c1NC(=O)c1cc(Br)nn1-c1ncccc1Cl [Cyantraniliprole]	0.149
Cc1cnc(Nc2ccc(OCCN3CCCC3)cc2)nc1Nc1cccc(S(=O)(=O)NC(C)(C)C)c1	-0.203
C=CCN(C)CCCCCCOc1ccc(C(=O)c2ccc(Br)cc2)c(F)c1 [Ro 48-8071 fumarate]	-0.0284
CC1=C2C[C@H]3[C@@H](CC(=O)[C@H]4C[C@@H](O)CC[C@@]43C)[C@@H]2CC[C@]12O[C@@H]1C[C@H](C)CN[C@H]1[C@H]2C [Peimisine]	-0.0353
CCCNC(=O)NS(=O)(=O)c1ccc(Cl)cc1 [Chlorpropamide]	-0.0864
COc1ccc(Cl)c(Nc2nc3ccccc3nc2NS(=O)(=O)c2cccc(NC(=O)C(C)(C)N)c2)c1 [Pilaralisib (XL147)]	1.02
CC(=O)O[C@]1(C(C)=O)CC[C@H]2[C@@H]3C=C(Cl)C4=CC(=O)CC[C@]4(C)[C@H]3CC[C@@]21C [Chlormadinone acetate]	0.105
C=CCc1ccc2c(c1O)C(=O)c1ccccc1C2=O	0.127
COc1ccc(-c2nc(N3CCOCC3)c3sc(CN(C)c4ncc(C(=O)NO)cn4)cc3n2)cn1	-0.295
